This is an account of results in the RNAGym collection of RNA variant scans (doi:10.1126/science.aae0568).

Variants at the background level are over-represented here.

B1: tRNA (parent)
chain: GUUCCGUUGGCGUAAUGGUAACGCGUCUCCCUCCUAAGGAGAAGACUGCGGGUUCGAGUCCCGUACGGAACG

The data set covers variants of B1. Nature of the data set: yeast fitness relative to wild type (ratio to wild type); higher = fitter; tRNA-Arg(CCU), competitive growth, 37 C, YPD. An outline of the steps: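 Genotype frequency changes were the basis for Darwinian fitness relative to wild type. The frequencies came from 100-nucleotide paired-end sequencing of gene amplicons from the start population and each end population of pooled yeast strains with tRNA-Arg(CCU) gene variants at the native locus. Competition ran in YPD at 37°C for 24 hours in six replicates, genotypes needed ≥ 100 starting reads, and estimates < 0.5 were set to 0.5.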
For C4U A14G C24G C31U C55A, the yeast fitness is at most 0.5. In the case of G17A C24G C27G A69U, the yeast fitness was at most 0.5. On to C5G U28C C31G C62U, for which the yeast fitness was at most 0.5. For the variant G9A G12C G17A C22G C30G G51C A57U, the yeast fitness was at most 0.5. Regarding G56C C60G, the yeast fitness is at most 0.5. The figure for C24G U59A A70U is at most 0.5; for C11G C34A C46U it is at most 0.5. Regarding C34G A42U, the yeast fitness came to 0.621.

G38A C62U A70U: the yeast fitness came out at 0.577. The figure for C5G A14U C34U A37G U47A is at most 0.5; for A15U C29A A57C U59A it is at most 0.5; for U28A A36U C49U it is at most 0.5. For the variant G6A G10C C29G U35G C61U, the yeast fitness was at most 0.5. For C4G U7C C29A U35A G67C, the yeast fitness is at most 0.5. On to G10C A14C A21U C31U, for which the yeast fitness stood at 0.773. Take C29G C46G G48C: the yeast fitness came to 0.533. Next, A14U C62G: 0.692; C5U G10A A20C G41A C46G G48A U54C C55U: at most 0.5; U7G G10A C27U C31A U53C: at most 0.5. For the variant C4G C49A C66U, the yeast fitness was at most 0.5.

With U8A G9A A36C A43U C61U G68A, the yeast fitness was at most 0.5.

As for G10A A36C A70U, the yeast fitness is at most 0.5. Take G10C A14G C34G G67A: the yeast fitness is at most 0.5. In the case of G12C A15U C24A G56A A57G G67A, the yeast fitness is at most 0.5. With C46U U54C G56A, the yeast fitness was found to be 0.642.

In the case of U3C C24U G56A, the yeast fitness is 0.757. Next, G17A C22U U32A C34U A37G A40U: at most 0.5; C22U C55A: at most 0.5.

In the case of C11U G18C C29A G67C, the yeast fitness is at most 0.5. U26A U28A C30G U35C A45U: the yeast fitness is at most 0.5. The figure for U8C A14G A45C is at most 0.5. Take C5A C34G A40U U47A G67C: the yeast fitness is at most 0.5. Consider U8A A40C G44A, for which the yeast fitness is at most 0.5. As for U28C A45U C66A, the yeast fitness was at most 0.5. The figure for C11A U13A A20U C29G A36G C46U G58A is at most 0.5. In the case of G6A A57U G68U A70G, the yeast fitness is at most 0.5. In the case of C4U C22U G68C, the yeast fitness was at most 0.5. On to C27A G38C U53C, for which the yeast fitness is at most 0.5. In the case of C5A C11G A14C A15C A40C A70C, the yeast fitness is at most 0.5. On to C34G C49G C61U, for which the yeast fitness was at most 0.5. With C33G A57U U59C, the yeast fitness was at most 0.5. In the case of C5U C33U A43G G48C, the yeast fitness is at most 0.5. Regarding C4U A40U G48C U53G, the yeast fitness is at most 0.5. Turning to U3G C11G U13A C30G A70G, the yeast fitness is at most 0.5. As to C33G G41C C55U G56C G58A G63C A65U, the yeast fitness was at most 0.5. The figure for A14G C33U G38A is at most 0.5; for G12A G18A A21G C24U C29U A57U it is at most 0.5; for C5A C11G A40G G67C A69U it is at most 0.5. The figure for A21G U53A U54C C61G is 0.718. Next, C4G C11U A69U: 0.539. On to U7C C11G U13A C29U A69U, for which the yeast fitness was at most 0.5. Consider A37C C46U A69U, for which the yeast fitness turned out to be 0.7. For the variant C29G C33U C61A G68U, the yeast fitness is at most 0.5. With A20C C27G G41C, the yeast fitness was at most 0.5. The figure for G12A U19G C22U C31U A40U G67A is at most 0.5; for A42C G68C A69G it is at most 0.5. With C27U C29U A65C A69C, the yeast fitness is at most 0.5.

As for C22U A37U U47A A70C, the yeast fitness was at most 0.5. For the variant G9C C34G G50A C61U C66U, the yeast fitness is at most 0.5.

Consider C24U U59A A69C, for which the yeast fitness is at most 0.5. On to A15G U16C C29A U47C, for which the yeast fitness is at most 0.5.

With G9C U16A A21U C66U, the yeast fitness was at most 0.5. The figure for A21C G52C A70U is at most 0.5. In the case of U3G G9U G18A A20G, the yeast fitness was at most 0.5. Next, C5U U19C G67C A70U: at most 0.5; A14G C49U G63C: at most 0.5. Next, A21C G50A G67A: at most 0.5; A14G C31G A37U G44A A65U: at most 0.5; U16C C24U C29G C49U A65U: at most 0.5.

As for A15U A21G C29U G44C C55A G56C, the yeast fitness is at most 0.5. Consider G10A C22U U47C, for which the yeast fitness was at most 0.5. The figure for A37G G39A A45C is 0.635; for C30G G63A G68A it is at most 0.5. G12A G25A C62G: the yeast fitness is at most 0.5. With U2C C11A, the yeast fitness was at most 0.5. With U3C U13A C31U G41A, the yeast fitness came out at 0.524. Next, A36U A43U: 0.638; G39C C46G C49G: at most 0.5. Next, U7A G10A G58A: at most 0.5; G12A A15G A43C C61G: at most 0.5; U3G C5U U26A G67C: at most 0.5. The figure for C11A C46G A65G is at most 0.5; for C4U C11G C29U it is at most 0.5. Turning to A14U U59A G68C, the yeast fitness is at most 0.5. Next, C31U C46G G50A C61U: 0.649. On to U3G C22A G50A, for which the yeast fitness is at most 0.5. Next, G9A G10A C31G G52A C62A: at most 0.5.

As to U8G A14U G23U G68C, the yeast fitness is at most 0.5. In the case of A15C C29U C31A G51C, the yeast fitness is at most 0.5.

With G9A C61U, the yeast fitness was found to be 0.949.

On to A42G C55U A57G, for which the yeast fitness is at most 0.5.

With G6A C24U C29A C61G C66U A69U, the yeast fitness was at most 0.5. The figure for A20U A45C C62U C66U is at most 0.5; for C29A A37U A65G it is at most 0.5. As for C11G A43U A57C C61U, the yeast fitness is at most 0.5. As for U8A C27U C31G C55G, the yeast fitness is at most 0.5. The figure for U2A G23A C30U C62A is at most 0.5. Next, C4G G23A A40C U53C: at most 0.5. A15C C46G G63C C66A: the yeast fitness was at most 0.5. The figure for G12C G67C is 0.825; for G10C A15G G18A U35A G44A it is at most 0.5; for A15U U19A C24A A57C A65C A70U it is at most 0.5.

Turning to C5A U8C A21G A45C G56C A69U, the yeast fitness is at most 0.5.

In the case of G12C U35A A37G, the yeast fitness was at most 0.5. U2C G18C G23C C33U G39A A43U C62A G63C: the yeast fitness was 0.851. As to A21G C66U, the yeast fitness was determined as 0.858. With U13A U32A C33G A42C A57U, the yeast fitness is at most 0.5. As for C4A C27G C30U, the yeast fitness is at most 0.5. Consider G10C A14U C34A C62U, for which the yeast fitness is at most 0.5.

In the case of C11A A14G A43C A57G G58A U59C A70G, the yeast fitness was at most 0.5. The figure for C4U C34G C46U G48C U54G is at most 0.5; for G6A C31A A37C it is at most 0.5; for A21G C22U G38C A43C C61A it is at most 0.5.

Take C5U C11A A21G A70G: the yeast fitness was at most 0.5.

Turning to U2G U13A C33U, the yeast fitness was at most 0.5. The figure for C4A G9C C11G G44A C60U G67C is at most 0.5; for G18C A20C C22U C31U C61G C62G it is at most 0.5.

For C5G G38C U54A, the yeast fitness was at most 0.5. For the variant U3A G10A C49A, the yeast fitness was at most 0.5.

On to U16C C49U C62U G67A, for which the yeast fitness is at most 0.5. For U3A C4G A40C G44A C61G, the yeast fitness is at most 0.5. As to U3G C5G A20C A43C, the yeast fitness was 0.557. The figure for G9A U16A G25C A42G C46G is at most 0.5; for C22U C30G C61U A65C C66U it is at most 0.5; for A36U A37C C49A U53G it is at most 0.5. G18A C22A A37C G41C C55G: the yeast fitness is at most 0.5. Next, U2G C11U A20C A70C: 0.667; A15G C24G U26A A36G G52A G68C: at most 0.5. Regarding U16C G18A C24G A45U U59G G68C, the yeast fitness turned out to be 0.537. As for G39C G51A C66U, the yeast fitness was at most 0.5.

As to U7A G12C A57U G63C U64A A70U, the yeast fitness is at most 0.5. Next, G9C A15C A69U: at most 0.5; U13A C22A C61G A69U: at most 0.5; C22G A45U G48C C49G C60U: at most 0.5. The figure for A14C C24G U47A C66U is at most 0.5; for A43U G48C U54C C60G it is at most 0.5. Next, A37C C49G C66A: at most 0.5; A15U C24U C61A: at most 0.5; C11U A20U G38A C49U G51A U54A: at most 0.5. Consider C4G G9A A15U C33A G52C, for which the yeast fitness was at most 0.5. As to C29G A36U A37U, the yeast fitness is at most 0.5.

Turning to U3G C5U U26A C31A G38A C55A C66U, the yeast fitness was at most 0.5. Take C4G G17C G39C G50A U59G C61A C62U: the yeast fitness is at most 0.5. As to C4A C33G G48A C66G A70C, the yeast fitness is at most 0.5. In the case of C34G A43U G48C, the yeast fitness was at most 0.5.

For G23C A37G A42U G48C C49U, the yeast fitness was at most 0.5. G10A G12C C46A: the yeast fitness is at most 0.5.

Take U13A G17A C22U C30U G38C C49A: the yeast fitness is at most 0.5.

Take A43U U54A: the yeast fitness was found to be 0.683.

As for C5A A40G C55A C61U, the yeast fitness is at most 0.5. Consider C5U U7A U28A C60U A70G, for which the yeast fitness is at most 0.5. Regarding A21C C27U A57G, the yeast fitness is 0.79. On to C5G C11U G17C A43U A69C, for which the yeast fitness is at most 0.5. With G6A C34G A37G, the yeast fitness was at most 0.5. With C27G G39C A70C, the yeast fitness was at most 0.5. A14C G18A C33U G41C: the yeast fitness is at most 0.5. Next, C5G C22A A37G G50C A70G: at most 0.5; C4A G9A G18C C22A A69C: at most 0.5.

As to A36C C62G, the yeast fitness is 0.575. Consider G6A G44A A69C, for which the yeast fitness came out at 0.576. Turning to G9A A37C A43C U59A A69G, the yeast fitness is at most 0.5. Next, G9C U47C A69C: at most 0.5; G17A C31U U54G: 0.639. Next, C5U C22U C27U A42G C55A C60A A70U: 0.57; C5U A14G A65U G67A: 0.689; U2C C29A G63A: at most 0.5.

For the variant A15C A40C U54C, the yeast fitness is at most 0.5.
